Consider 2 substances from PMC9127750.

Protein sequences, listed by entry. Tags and fused reporters are not part of them. Lines headed by an entry give the natural chain unless they say otherwise; changes in a name come on top.
UniProt Q13153, whole entry: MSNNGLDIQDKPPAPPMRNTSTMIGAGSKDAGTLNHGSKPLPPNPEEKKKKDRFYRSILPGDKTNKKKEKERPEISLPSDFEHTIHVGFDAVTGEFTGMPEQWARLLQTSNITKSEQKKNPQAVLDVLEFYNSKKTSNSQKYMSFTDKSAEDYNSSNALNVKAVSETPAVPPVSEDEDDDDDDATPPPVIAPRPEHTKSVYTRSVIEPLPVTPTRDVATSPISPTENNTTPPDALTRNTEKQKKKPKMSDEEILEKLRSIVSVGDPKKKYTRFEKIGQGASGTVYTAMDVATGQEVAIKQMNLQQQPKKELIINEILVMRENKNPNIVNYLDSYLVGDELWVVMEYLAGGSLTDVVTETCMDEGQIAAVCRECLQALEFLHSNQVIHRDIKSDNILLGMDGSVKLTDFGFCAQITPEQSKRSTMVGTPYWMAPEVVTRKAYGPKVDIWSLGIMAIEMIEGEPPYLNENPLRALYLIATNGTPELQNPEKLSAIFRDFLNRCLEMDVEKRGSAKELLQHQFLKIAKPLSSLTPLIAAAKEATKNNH

No constants are given. Whether binding was seen depends on the method and setting. Binding seen in cells or lysates may run through a third protein. Some entries that bind do so weakly or less than the wild type.

The target of this experiment is wild-type (WT) form of PAK1, Venus fragment fusion (UniProt Q13153). In words: split reporter.

For “constitutively active (CA) mutant form of RHOJ (Q79L), Venus fragment fusion (from UniProt Q9H4E5 1-214)”, the binding entry is “binds”. For “constitutively active (CA) mutant form of CDC42 (Q61L), Venus fragment fusion (from UniProt P60953 1-191)”, the binding result is listed as “binds”.
